From the supplement of paper PMC10849652
The list shows a part of the results.

Protein sequences, listed by entry. Tags and fused reporters are not part of them. Lines headed by an entry give the natural chain unless they say otherwise; changes in a name come on top.
UniProt O14686, whole entry, looked up: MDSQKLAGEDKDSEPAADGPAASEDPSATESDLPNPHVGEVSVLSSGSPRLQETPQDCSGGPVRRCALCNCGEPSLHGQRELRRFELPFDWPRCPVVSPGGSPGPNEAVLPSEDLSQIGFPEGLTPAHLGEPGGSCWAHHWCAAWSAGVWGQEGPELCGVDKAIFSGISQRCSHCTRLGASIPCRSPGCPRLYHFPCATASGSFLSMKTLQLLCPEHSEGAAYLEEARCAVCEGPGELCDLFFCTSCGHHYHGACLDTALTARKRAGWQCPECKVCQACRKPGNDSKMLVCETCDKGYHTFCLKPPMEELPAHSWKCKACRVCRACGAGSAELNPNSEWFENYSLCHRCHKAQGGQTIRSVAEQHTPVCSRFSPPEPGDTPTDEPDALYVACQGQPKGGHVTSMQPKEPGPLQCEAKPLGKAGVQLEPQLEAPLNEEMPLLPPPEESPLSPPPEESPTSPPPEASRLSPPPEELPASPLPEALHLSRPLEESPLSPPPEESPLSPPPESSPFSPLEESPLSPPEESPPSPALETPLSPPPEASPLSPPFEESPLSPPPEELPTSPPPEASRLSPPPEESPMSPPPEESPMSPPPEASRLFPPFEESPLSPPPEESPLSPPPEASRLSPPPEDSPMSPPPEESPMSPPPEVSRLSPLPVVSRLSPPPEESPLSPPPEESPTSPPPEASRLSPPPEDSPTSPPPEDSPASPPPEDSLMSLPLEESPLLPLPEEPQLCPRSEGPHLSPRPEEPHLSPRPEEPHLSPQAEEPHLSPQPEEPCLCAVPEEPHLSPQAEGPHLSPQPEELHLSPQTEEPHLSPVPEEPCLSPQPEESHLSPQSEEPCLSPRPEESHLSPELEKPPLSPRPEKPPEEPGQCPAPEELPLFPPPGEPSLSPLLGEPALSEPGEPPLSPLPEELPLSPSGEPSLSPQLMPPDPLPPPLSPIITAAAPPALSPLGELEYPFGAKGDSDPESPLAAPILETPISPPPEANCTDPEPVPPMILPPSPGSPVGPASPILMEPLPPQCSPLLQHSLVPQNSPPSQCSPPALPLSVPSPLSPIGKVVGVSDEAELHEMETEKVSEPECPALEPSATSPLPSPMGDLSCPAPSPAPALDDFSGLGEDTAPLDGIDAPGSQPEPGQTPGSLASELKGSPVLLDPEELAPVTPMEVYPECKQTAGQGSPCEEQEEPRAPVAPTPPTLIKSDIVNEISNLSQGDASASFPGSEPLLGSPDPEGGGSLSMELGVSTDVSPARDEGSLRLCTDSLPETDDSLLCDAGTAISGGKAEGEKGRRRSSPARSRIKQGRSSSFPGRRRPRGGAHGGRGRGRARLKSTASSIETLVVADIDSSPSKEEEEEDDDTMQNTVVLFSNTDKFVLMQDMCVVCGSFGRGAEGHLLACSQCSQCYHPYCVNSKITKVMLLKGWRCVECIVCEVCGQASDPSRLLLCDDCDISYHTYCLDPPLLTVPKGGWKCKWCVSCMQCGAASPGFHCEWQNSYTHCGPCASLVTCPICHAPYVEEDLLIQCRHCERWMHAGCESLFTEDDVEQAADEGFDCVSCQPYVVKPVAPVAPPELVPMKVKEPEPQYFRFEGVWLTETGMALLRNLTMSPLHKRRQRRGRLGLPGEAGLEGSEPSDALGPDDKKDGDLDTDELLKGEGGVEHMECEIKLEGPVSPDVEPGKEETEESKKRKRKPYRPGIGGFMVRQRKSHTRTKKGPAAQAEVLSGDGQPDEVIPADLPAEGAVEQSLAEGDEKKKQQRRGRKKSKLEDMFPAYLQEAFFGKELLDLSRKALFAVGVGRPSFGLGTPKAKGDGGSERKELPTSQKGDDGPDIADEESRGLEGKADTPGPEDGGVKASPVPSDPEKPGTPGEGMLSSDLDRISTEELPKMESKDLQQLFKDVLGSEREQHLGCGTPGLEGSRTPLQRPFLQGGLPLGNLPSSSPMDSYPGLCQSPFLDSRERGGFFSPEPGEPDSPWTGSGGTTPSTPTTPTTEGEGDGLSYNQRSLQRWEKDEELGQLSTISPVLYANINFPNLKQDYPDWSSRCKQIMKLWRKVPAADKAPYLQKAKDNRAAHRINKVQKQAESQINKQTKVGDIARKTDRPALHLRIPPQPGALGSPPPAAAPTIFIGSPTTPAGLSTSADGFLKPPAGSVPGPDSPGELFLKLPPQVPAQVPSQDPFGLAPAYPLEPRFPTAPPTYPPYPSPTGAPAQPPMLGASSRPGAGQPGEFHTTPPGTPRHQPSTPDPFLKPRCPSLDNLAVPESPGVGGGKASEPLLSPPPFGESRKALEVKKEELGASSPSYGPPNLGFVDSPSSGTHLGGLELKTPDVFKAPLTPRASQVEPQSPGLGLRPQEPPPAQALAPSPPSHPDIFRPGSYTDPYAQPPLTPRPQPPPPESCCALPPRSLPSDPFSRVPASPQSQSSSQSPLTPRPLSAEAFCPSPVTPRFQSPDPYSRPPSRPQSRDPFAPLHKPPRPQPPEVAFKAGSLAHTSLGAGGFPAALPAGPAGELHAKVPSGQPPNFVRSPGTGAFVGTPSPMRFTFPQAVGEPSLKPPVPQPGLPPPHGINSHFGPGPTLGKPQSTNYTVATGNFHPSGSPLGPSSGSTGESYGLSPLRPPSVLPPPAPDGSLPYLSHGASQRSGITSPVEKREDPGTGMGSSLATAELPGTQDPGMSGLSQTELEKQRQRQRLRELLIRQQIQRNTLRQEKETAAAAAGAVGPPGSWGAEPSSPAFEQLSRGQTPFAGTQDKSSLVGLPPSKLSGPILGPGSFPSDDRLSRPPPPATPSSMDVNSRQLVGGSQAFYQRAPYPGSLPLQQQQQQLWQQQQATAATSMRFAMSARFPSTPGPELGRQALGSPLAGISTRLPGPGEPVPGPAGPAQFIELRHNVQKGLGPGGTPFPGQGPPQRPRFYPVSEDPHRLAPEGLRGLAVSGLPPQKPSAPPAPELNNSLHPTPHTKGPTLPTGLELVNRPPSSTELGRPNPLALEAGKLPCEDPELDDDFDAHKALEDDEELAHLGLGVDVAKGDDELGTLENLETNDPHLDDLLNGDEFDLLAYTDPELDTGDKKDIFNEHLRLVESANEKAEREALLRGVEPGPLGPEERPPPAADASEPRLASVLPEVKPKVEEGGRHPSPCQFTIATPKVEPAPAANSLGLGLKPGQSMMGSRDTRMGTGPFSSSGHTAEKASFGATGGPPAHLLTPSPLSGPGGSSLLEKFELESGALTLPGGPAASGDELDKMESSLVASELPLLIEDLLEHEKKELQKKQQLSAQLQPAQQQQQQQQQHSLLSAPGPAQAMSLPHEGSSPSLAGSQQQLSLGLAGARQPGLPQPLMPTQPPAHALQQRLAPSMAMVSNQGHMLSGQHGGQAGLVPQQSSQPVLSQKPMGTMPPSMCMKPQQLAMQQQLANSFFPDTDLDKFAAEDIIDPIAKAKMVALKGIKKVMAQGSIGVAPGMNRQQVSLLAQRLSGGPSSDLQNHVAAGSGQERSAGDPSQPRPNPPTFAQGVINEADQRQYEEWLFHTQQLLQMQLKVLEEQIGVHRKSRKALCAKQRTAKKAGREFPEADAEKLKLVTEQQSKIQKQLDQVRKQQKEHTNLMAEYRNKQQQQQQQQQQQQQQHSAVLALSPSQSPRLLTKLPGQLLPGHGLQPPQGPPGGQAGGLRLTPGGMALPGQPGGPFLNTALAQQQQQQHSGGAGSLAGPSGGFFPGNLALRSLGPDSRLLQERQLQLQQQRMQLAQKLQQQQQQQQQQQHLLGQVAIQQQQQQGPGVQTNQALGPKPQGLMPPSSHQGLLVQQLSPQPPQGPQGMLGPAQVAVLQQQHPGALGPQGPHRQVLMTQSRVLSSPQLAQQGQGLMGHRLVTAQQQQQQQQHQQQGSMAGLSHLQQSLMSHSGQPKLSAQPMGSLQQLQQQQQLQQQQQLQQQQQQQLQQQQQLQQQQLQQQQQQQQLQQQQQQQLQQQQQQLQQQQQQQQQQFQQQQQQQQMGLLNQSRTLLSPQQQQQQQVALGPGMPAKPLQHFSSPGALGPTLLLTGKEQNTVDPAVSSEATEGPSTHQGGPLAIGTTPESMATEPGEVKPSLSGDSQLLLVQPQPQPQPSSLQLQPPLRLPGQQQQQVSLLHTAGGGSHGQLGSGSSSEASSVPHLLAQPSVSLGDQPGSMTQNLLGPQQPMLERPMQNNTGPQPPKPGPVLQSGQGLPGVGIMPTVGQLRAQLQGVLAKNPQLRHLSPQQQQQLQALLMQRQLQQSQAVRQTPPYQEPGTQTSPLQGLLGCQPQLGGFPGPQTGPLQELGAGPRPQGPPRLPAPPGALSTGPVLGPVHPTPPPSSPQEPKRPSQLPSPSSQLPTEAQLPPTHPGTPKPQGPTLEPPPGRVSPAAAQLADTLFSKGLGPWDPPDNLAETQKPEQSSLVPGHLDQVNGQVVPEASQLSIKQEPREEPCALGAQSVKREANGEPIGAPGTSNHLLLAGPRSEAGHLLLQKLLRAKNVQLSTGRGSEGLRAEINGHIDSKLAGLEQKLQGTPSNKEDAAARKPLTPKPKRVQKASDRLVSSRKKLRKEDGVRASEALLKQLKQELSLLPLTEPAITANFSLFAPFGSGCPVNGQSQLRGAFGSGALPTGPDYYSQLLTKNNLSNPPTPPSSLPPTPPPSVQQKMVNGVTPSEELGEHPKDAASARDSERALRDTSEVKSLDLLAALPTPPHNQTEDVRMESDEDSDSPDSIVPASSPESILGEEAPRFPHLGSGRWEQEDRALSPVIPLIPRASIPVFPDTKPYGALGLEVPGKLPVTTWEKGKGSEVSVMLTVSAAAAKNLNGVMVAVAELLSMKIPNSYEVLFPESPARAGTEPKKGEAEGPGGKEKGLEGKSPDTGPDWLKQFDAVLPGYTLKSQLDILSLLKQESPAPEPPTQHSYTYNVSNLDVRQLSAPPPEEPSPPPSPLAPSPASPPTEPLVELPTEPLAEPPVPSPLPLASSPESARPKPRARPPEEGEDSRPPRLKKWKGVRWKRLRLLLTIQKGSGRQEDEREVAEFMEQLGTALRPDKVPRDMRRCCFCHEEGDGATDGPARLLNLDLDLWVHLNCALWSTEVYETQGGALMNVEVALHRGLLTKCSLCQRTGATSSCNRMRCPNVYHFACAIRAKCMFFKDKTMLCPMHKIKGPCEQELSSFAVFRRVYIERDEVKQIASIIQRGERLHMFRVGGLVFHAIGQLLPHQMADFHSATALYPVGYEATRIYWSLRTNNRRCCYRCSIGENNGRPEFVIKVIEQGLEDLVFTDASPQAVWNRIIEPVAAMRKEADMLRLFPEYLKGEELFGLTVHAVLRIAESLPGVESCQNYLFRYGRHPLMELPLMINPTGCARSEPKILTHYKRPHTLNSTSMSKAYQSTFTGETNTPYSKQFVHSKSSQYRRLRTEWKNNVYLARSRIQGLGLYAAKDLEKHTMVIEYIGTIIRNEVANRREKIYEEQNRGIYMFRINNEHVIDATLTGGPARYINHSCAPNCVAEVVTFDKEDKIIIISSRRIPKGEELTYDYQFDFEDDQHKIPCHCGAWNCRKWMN
UniProt Q9Y6Y0: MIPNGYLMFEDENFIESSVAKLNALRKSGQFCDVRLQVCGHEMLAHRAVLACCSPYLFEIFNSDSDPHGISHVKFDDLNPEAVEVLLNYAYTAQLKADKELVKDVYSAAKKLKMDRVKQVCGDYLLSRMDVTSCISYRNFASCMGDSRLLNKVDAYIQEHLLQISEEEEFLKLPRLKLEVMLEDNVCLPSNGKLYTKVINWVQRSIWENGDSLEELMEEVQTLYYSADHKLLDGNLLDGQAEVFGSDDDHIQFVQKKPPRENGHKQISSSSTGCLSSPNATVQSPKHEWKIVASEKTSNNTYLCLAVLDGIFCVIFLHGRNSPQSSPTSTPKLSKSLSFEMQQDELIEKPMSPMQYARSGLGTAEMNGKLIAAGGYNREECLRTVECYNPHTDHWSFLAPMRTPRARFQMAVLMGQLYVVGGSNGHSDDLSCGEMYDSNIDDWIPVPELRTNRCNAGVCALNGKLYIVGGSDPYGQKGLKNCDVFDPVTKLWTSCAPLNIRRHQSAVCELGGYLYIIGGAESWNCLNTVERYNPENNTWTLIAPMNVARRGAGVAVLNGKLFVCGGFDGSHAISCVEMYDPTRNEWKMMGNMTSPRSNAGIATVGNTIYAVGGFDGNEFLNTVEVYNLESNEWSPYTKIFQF
UniProt Q9Y448: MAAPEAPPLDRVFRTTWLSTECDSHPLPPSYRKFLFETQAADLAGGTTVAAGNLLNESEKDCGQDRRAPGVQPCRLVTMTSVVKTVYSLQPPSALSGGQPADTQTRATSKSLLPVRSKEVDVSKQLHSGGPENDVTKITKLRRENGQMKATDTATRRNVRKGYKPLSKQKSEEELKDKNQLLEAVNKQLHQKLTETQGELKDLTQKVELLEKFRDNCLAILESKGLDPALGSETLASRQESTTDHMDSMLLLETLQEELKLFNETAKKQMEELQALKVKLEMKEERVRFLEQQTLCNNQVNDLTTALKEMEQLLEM

Compound: C1=CC2=C(C=CC(=C2)/C=C\3/C(=O)NC(=NCC4=CC=CS4)S3)N=C1
Test: log2 fold change, soluble protein after heating vs DMSO (PISA); higher = thermal stabilisation; K562 cells, 10 uM, 30 min; active = over 0.2 and 3.5 SD of the protein, either way, in both replicates (recomputed)
How it was run: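 Values are thermal stability changes relative to control samples and are taken from duplicates. They are stated as log2 fold changes. Before quantification by TMTpro 16plex LC-MS/MS with equalised channel sums, K562 cells at 2×10^6 cells/mL were treated with 10 μM compound for 30 min, heated in aliquots for 3 min across 48°C-58°C, pooled, extracted in PBS with 0.5% NP-40 at 4°C, and centrifuged at 21,000xg for 90 min to give the soluble supernatant.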

log2 fold change, inactive:
KIAA1143 (UniProt Q96AT1) 0.06
KLC2 (UniProt Q9H0B6) 0.078
KDM8 isoform 3 (UniProt Q8N371) 0.099
KPNA2 (UniProt P52292) -0.107
KMT2D isoform 3 (UniProt O14686) 0.032
KATNB1 (UniProt Q9BVA0) 0.002
KIF13A (UniProt Q9H1H9) 0.056
KHDRBS1 (UniProt Q07666) -0.088
KHSRP (UniProt Q92945) 0.011
KPNB1 (UniProt Q14974) -0.028
KNTC1 (UniProt P50748) 0.019
KIAA0100 (UniProt Q14667) 0.148
KLHL11 (UniProt Q9NVR0) 0
JAGN1 (UniProt Q8N5M9) 0.133
KLC1 isoform 6 (UniProt Q07866) 0.023
IVNS1ABP (UniProt Q9Y6Y0) -0.002
KNSTRN (UniProt Q9Y448) 0.004
KIF1B isoform 4 (UniProt O60333) 0.002
KARS1 (UniProt Q15046) -0.016
KDM1A isoform 2 (UniProt O60341) 0.075
KCTD5 (UniProt Q9NXV2) 0.14
KPNA1 (UniProt P52294) -0.011
KBTBD2 (UniProt Q8IY47) 0.052

Random excerpt: 2 entries already listed
log2 fold change, inactive:
IVNS1ABP (UniProt Q9Y6Y0) -0.002
KCTD5 (UniProt Q9NXV2) 0.14
